# The list shows a part of the results. Only a few entries rise above the background.
# B1: 4-173.5 (protein)
# chain 1: QLQLQESGPGLVKPSETLSLTCAVSGDSISSNYWSWIRQPPGKGLEWIGRISDGGGSTDYNPSLKSRVTISTDTSKNQFSLKLNSVTAADTAVYFCARGSYRVDYWGQGVLVTVSS
# chain 2: QAALTQPPSMSGSPGQSVTISCTGASSDIGGYNRVSWYQQHPANAPKLMIYDVSKRPSGVSDRFSGSKSGNTASLTISGLQADDEADYYCSSYAHINTALFGGGTRLTVL
# B2: 4-173.2 (protein)
# chain 1: QLQLQESGPGLVKPSETLSLTCAVSGGSINSNYWSWIRQPPGKGLDWIGRISGSGGSTDYNPSLKSRVTISTDTSKTQFSLKLRSVTAADTAVYYCGRGSYQIDYWGQGILVTVSS
# chain 2: QAALTQPPSMSGSPGQSVTISCTGTSSDIGGYNRVSWYQQYPGKAPKLMIYEVSKRPSGVSDRFSGSKSGNTASLTISGLQAADEADYYCSSYAGSKALFGGGTRLTVL
# What was measured:
# Assay in all cases: fluorescence intensity of antibody binding to polysaccharide-coupled beads; higher = stronger binding
# [1] = target: pneumococcal polysaccharide Pn9N
# [2] = target: pneumococcal polysaccharide Pn9V
# [3] = target: pneumococcal polysaccharide C-Poly-1
# [4] = target: pneumococcal polysaccharide C-Poly-2
# [5] = target: pneumococcal polysaccharide Pn1
# [6] = target: pneumococcal polysaccharide Pn10A
# [7] = target: pneumococcal polysaccharide Pn10B
# [8] = target: pneumococcal polysaccharide Pn10C
# [9] = target: pneumococcal polysaccharide Pn10F
# [10] = target: pneumococcal polysaccharide Pn11A
# [11] = target: pneumococcal polysaccharide Pn11B
# [12] = target: pneumococcal polysaccharide Pn11C
# [13] = target: pneumococcal polysaccharide Pn11D
# [14] = target: pneumococcal polysaccharide Pn11F
# [15] = antibody concentration 2337.65 ng/mL
# [16] = antibody concentration 12500 ng/mL
# [17] = antibody concentration 0.1 ng/mL
# [18] = antibody concentration 0.534724 ng/mL
# [19] = antibody concentration 2.8593 ng/mL
# [20] = antibody concentration 15.2894 ng/mL
# [21] = antibody concentration 81.7561 ng/mL
# [22] = antibody concentration 437.17 ng/mL
binder,measurement,setting,value
B1,fluorescence intensity,[1]; [15],3400 MFI
same,fluorescence intensity,[1]; [16],5110 MFI
same,fluorescence intensity,[2]; [17],16.2 MFI
same,fluorescence intensity,[2]; [18],16 MFI
same,fluorescence intensity,[2]; [19],23.5 MFI
same,fluorescence intensity,[2]; [20],74.2 MFI
same,fluorescence intensity,[2]; [21],317 MFI
same,fluorescence intensity,[2]; [22],1450 MFI
same,fluorescence intensity,[2]; [15],3340 MFI
same,fluorescence intensity,[2]; [16],4650 MFI
B2,fluorescence intensity,[3]; [17],26 MFI
same,fluorescence intensity,[3]; [18],25.5 MFI
same,fluorescence intensity,[3]; [19],25 MFI
same,fluorescence intensity,[3]; [20],26 MFI
same,fluorescence intensity,[3]; [21],27.2 MFI
same,fluorescence intensity,[3]; [22],30.5 MFI
same,fluorescence intensity,[3]; [15],57.8 MFI
same,fluorescence intensity,[3]; [16],386 MFI
same,fluorescence intensity,[4]; [17],21.5 MFI
same,fluorescence intensity,[4]; [18],22 MFI
same,fluorescence intensity,[4]; [19],21.5 MFI
same,fluorescence intensity,[4]; [20],22 MFI
same,fluorescence intensity,[4]; [21],22 MFI
same,fluorescence intensity,[4]; [22],27 MFI
same,fluorescence intensity,[4]; [15],47 MFI
same,fluorescence intensity,[4]; [16],286 MFI
same,fluorescence intensity,[5]; [17],13 MFI
same,fluorescence intensity,[5]; [18],13 MFI
same,fluorescence intensity,[5]; [19],15 MFI
same,fluorescence intensity,[5]; [20],13.8 MFI
same,fluorescence intensity,[5]; [21],14.5 MFI
same,fluorescence intensity,[5]; [22],15 MFI
same,fluorescence intensity,[5]; [15],19.5 MFI
same,fluorescence intensity,[5]; [16],53.2 MFI
same,fluorescence intensity,[6]; [17],26 MFI
same,fluorescence intensity,[6]; [18],27.8 MFI
same,fluorescence intensity,[6]; [19],25.8 MFI
same,fluorescence intensity,[6]; [20],27.8 MFI
same,fluorescence intensity,[6]; [21],25.5 MFI
same,fluorescence intensity,[6]; [22],26.5 MFI
same,fluorescence intensity,[6]; [15],30 MFI
same,fluorescence intensity,[6]; [16],45.5 MFI
same,fluorescence intensity,[7]; [17],23 MFI
same,fluorescence intensity,[7]; [18],23.2 MFI
same,fluorescence intensity,[7]; [19],24 MFI
same,fluorescence intensity,[7]; [20],21.5 MFI
same,fluorescence intensity,[7]; [21],23.5 MFI
same,fluorescence intensity,[7]; [22],23.5 MFI
same,fluorescence intensity,[7]; [15],27 MFI
same,fluorescence intensity,[7]; [16],41.5 MFI
same,fluorescence intensity,[8]; [17],17 MFI
same,fluorescence intensity,[8]; [18],17 MFI
same,fluorescence intensity,[8]; [19],17 MFI
same,fluorescence intensity,[8]; [20],17.5 MFI
same,fluorescence intensity,[8]; [21],15.2 MFI
same,fluorescence intensity,[8]; [22],17 MFI
same,fluorescence intensity,[8]; [15],18.8 MFI
same,fluorescence intensity,[8]; [16],30.5 MFI
same,fluorescence intensity,[9]; [17],20 MFI
same,fluorescence intensity,[9]; [18],19.5 MFI
same,fluorescence intensity,[9]; [19],19.5 MFI
same,fluorescence intensity,[9]; [20],18.2 MFI
same,fluorescence intensity,[9]; [21],20 MFI
same,fluorescence intensity,[9]; [22],19.5 MFI
same,fluorescence intensity,[9]; [15],22 MFI
same,fluorescence intensity,[9]; [16],28 MFI
same,fluorescence intensity,[10]; [17],28 MFI
same,fluorescence intensity,[10]; [18],30.5 MFI
same,fluorescence intensity,[10]; [19],30 MFI
same,fluorescence intensity,[10]; [20],31.2 MFI
same,fluorescence intensity,[10]; [21],28.8 MFI
same,fluorescence intensity,[10]; [22],34 MFI
same,fluorescence intensity,[10]; [15],39.2 MFI
same,fluorescence intensity,[10]; [16],52 MFI
same,fluorescence intensity,[11]; [17],29 MFI
same,fluorescence intensity,[11]; [18],25 MFI
same,fluorescence intensity,[11]; [19],23 MFI
same,fluorescence intensity,[11]; [20],26.5 MFI
same,fluorescence intensity,[11]; [21],25.8 MFI
same,fluorescence intensity,[11]; [22],26 MFI
same,fluorescence intensity,[11]; [15],32 MFI
same,fluorescence intensity,[11]; [16],44.5 MFI
same,fluorescence intensity,[12]; [17],22.8 MFI
same,fluorescence intensity,[12]; [18],23 MFI
same,fluorescence intensity,[12]; [19],21 MFI
same,fluorescence intensity,[12]; [20],19 MFI
same,fluorescence intensity,[12]; [21],23.5 MFI
same,fluorescence intensity,[12]; [22],22.5 MFI
same,fluorescence intensity,[12]; [15],40.5 MFI
same,fluorescence intensity,[12]; [16],262 MFI
same,fluorescence intensity,[13]; [17],23 MFI
same,fluorescence intensity,[13]; [18],22.5 MFI
same,fluorescence intensity,[13]; [19],22 MFI
same,fluorescence intensity,[13]; [20],22.5 MFI
same,fluorescence intensity,[13]; [21],23 MFI
same,fluorescence intensity,[13]; [22],23.5 MFI
same,fluorescence intensity,[13]; [15],34 MFI
same,fluorescence intensity,[13]; [16],128 MFI
same,fluorescence intensity,[14]; [17],12.5 MFI
same,fluorescence intensity,[14]; [18],14.2 MFI

# For reference, some entries already given:
binder,measurement,setting,value
B2,fluorescence intensity,[13]; [17],23 MFI
same,fluorescence intensity,[13]; [18],22.5 MFI

# An excerpt of these results, bar-delimited.
binder | measurement | setting | value
B2 | fluorescence intensity | [4]; [16] | 286 MFI
same | fluorescence intensity | [6]; [21] | 25.5 MFI
same | fluorescence intensity | [8]; [17] | 17 MFI
same | fluorescence intensity | [10]; [22] | 34 MFI

# From the supplement of paper PMC11438910
